Source: article PMC12431657, “Discovery and mechanistic insights of dibenzoylmethane as a broad spectrum inhibitor of coronavirus” (PLOS Pathogens, 2025)
Structures can show the parent of a compound that is named as a salt. Where two headings read alike, the source gives them in different places. Hit rate of the full screen: of about 3,300 compounds, about 95 (3%) showed an effect of 50% or more. The list shows a part of the results.

System: HCoV-229E
Set-up: species or system Huh-7; HTS, protection from HCoV-229E induced cell death, luminescent cell viability (CellCounting-Lite 2.0), inhibition rate
Details: 24 h post infection, 1 h compound pre-incubation, 10 µM, inhibitor

Row | Structure (SMILES) | 229E Inhibition rate | 229E Inhibition rate (229E Inhibition rate, 24 h)
1 | COC1[C@@H](O)[C@H](O)C(O)[C@H](O)[C@H]1O (stereo partly shown) [Sequoyitol] | 5.9% | –
2 | C[C@@H]1CC[C@@]2(OC1)O[C@H]1C[C@H]3[C@@H]4CC=C5C[C@@H](O)C[C@@H](O[C@@H]6O[C@H](C)[C@H](O)[C@H](O[C@@H]7OC[C@@H](O)[C@H](O)[C@H]7O)[C@H]6O[C@@H]6O[C@@H](C)[C@H](O)[C@@H](O)[C@H]6O)[C@]5(C)[C@H]4CC[C@]3(C)[C@H]1[C@@H]2C [Ophiopogonin D] | – | 50.3%
3 | COc1ccc([C@@H](O)CNC(=O)/C=C/c2ccccc2)cc1 (racemic) [Aegeline] | 0% | –
4 | CCCCCCC(CCCCCCCCCC(=O)O)C(=O)OCC(O)CO (stereo not shown) [Caprylic/Capric Triglyceride] | 35.8% | –
5 | CCCCCCCCCCCCCCC(O)C(=O)O (stereo not shown) [2-Hydroxypalmitic acid] | 17.2% | –
6 | O=c1cc(-c2ccc(O)cc2)oc2cc(O)cc(O)c12 [Apigenin] | 55.5% | –
7 | O=C(O)CCCCCCCCCCCCC(=O)O [Tetradecanedioic acid] | 8% | –
8 | C[Se]CC[C@H](N)C(=O)O [Selenomethionine] | – | 11.2%
9 | C=C(C)C(=O)Cc1c(OC)ccc2ccc(=O)oc12 [Murrayone] | 14% | –
10 | O=c1cc(-c2ccccc2)oc2cc(O[C@@H]3O[C@H](CO)[C@@H](O)[C@H](O)[C@H]3O)c(O)c(O)c12 [Oroxin A] | 34.7% | –
11 | NC(Cc1cccc(O)c1)C(=O)O (racemic) [DL-m-Tyrosine] | 6.4% | –
12 | COc1cc2c(cc1OC)[C@H](C)NCC2 [Salsolidine] | 0% | –
13 | O=Cc1cccc(O)c1 [3-Hydroxybenzaldehyde] | 10.5% | –
14 | COc1c(CC=C(C)C)c(O)cc2oc(=O)c3c4ccc(O)cc4oc3c12 [Neoglycyrol] | 90.8% | –
15 | NCCc1cc(O)c(O)c(O)c1 [5-Hydroxydopamine hydrochloride] | 11.7% | –
16 | C/C=C/C=C/C(=O)O [Sorbic acid] | – | 16.1%
17 | C=C[C@H]1[C@H](O[C@@H]2O[C@H](CO)[C@@H](O)[C@H](O)[C@H]2O)OC=C(C(=O)OC)[C@H]1CC=O [Secologanin] | 9.8% | –
18 | CC1(C)CC[C@]2(C(=O)O)CC[C@]3(C)C(=CC[C@@H]4[C@@]5(C)CC[C@H](O[C@@H]6OC[C@H](O)[C@H](O)[C@H]6O[C@@H]6O[C@H](CO)[C@@H](O)[C@H](O)[C@H]6O)[C@@](C)(CO)[C@@H]5CC[C@]43C)[C@@H]2C1 [Cauloside C] | 5.7% | –
19 | C/C=C(/C)C(=O)O [Angelic acid] | 7.1% | –
20 | Oc1ccc(CC2NCCc3cc(O)c(O)cc32)cc1 (stereo not shown) [Higenamine (hydrochloride)] | 9.5% | –
21 | CC1(C)CC[C@]2(C(=O)O)[C@H](O)C[C@]3(C)C(=CC[C@@H]4[C@@]5(C)CC[C@H](O)C(C)(C)[C@@H]5CC[C@]43C)[C@@H]2C1 [Echinocystic acid] | 7.2% | –
22 | O=C(N[C@H](COC(=O)[C@H](Cc1ccccc1)NC(=O)c1ccccc1)Cc1ccccc1)c1ccccc1 [Asperphenamate] | 18% | –

3 entries already listed, arranged by SMILES length, ascending.
Row | Structure (SMILES) | 229E Inhibition rate | 229E Inhibition rate (229E Inhibition rate, 24 h)
13 | O=Cc1cccc(O)c1 [3-Hydroxybenzaldehyde] | 10.5% | –
9 | C=C(C)C(=O)Cc1c(OC)ccc2ccc(=O)oc12 [Murrayone] | 14% | –
10 | O=c1cc(-c2ccccc2)oc2cc(O[C@@H]3O[C@H](CO)[C@@H](O)[C@H](O)[C@H]3O)c(O)c(O)c12 [Oroxin A] | 34.7% | –

(list continues)

Row | Structure (SMILES) | 229E Inhibition rate | 229E Inhibition rate (229E Inhibition rate, 24 h)
23 | CC1=CCC(O)(C(C)C)CC1 (stereo not shown) [Terpinen-4-ol] | 10.2% | –
24 | Nc1cc(C(=O)O)ccc1O [3-Amino-4-hydroxybenzoic acid] | 0% | –
25 | COc1ccc(C=O)c(O)c1 [2-Hydroxy-4-methoxybenzaldehyde] | 9.1% | –
26 | CC(C)(O)[C@@H]1Cc2cc3ccc(=O)oc3cc2O1 [S-(+)-Marmesin] | 17.5% | –
27 | C=C1CC[C@]2(C)CC[C@]3(C)[C@H](CC[C@@H]4[C@@]5(C)CC[C@H](O)C(C)(C)[C@@H]5CC[C@]43C)[C@H]2[C@@H]1C [Taraxasterol] | 12.5% | –
28 | CCCCCCCC(=O)O[C@H](CC(=O)[O-])C[N+](C)(C)C [L-Octanoylcarnitine] | 0% | –
29 | O=C(O)c1c[nH]c2ccccc12 [Indole-3-carboxylic acid] | 22.5% | –
30 | O=C(O[C@@H]1Cc2c(O)cc(O)cc2O[C@@H]1c1cc(=O)c(O)c2c(O)c(O)cc([C@H]3Oc4cc(O)cc(O)c4C[C@H]3O)c2c1)c1cc(O)c(O)c(O)c1 [Theaflavin-3-gallate] | – | 39.8%
31 | COc1cc(-c2cc(=O)c3c(O)c(OC)c(O)cc3o2)cc(O)c1OC [5,7,3'-Trihydroxy-6,4',5'-trimethoxyflavone] | 0% | –
32 | Nc1nc(=O)c2nc(CNc3ccc(C(=O)N[C@@H](CCC(=O)O)C(=O)O)cc3)cnc2[nH]1 [Folic acid] | 21.7% | –
33 | C=CC[S+]([O-])C[C@H](N)C(=O)O (stereo partly shown) [Alliin] | 4.1% | –
34 | CC(=O)N[C@@H](CC(C)C)C(=O)O [N-Acetyl-L-leucine] | 5.7% | –
35 | OCC1CCCCO1 (stereo not shown) [2-Hydroxymethyltetrahydropyran] | 4.6% | –
36 | COc1ccc(-c2cc(=O)c3c(O)cc(O)cc3o2)cc1O [Diosmetin] | 0% | –
37 | CCCCCCCCCC(C)O (stereo not shown) [2-Undecanol] | 13% | –
38 | CC1(C)Oc2cc3oc(=O)ccc3cc2CC1O (racemic) [(±)-Decursinol] | 14.2% | –
39 | CC(N)=O [Acetamide] | 12.5% | –
40 | COc1cc2c(cc1CC=C(C)C)C(=O)C[C@@H](c1ccc(O)cc1)O2 [Bavachinin] | 36.7% | –
41 | CC(C)=CC[C@]12Oc3cc(O)c([C@H]4C=C(C)C[C@H](c5ccc(O)cc5O)[C@H]4C(=O)c4ccc(O)cc4O)c(O)c3C(=O)[C@@]1(O)Oc1cc(O)ccc12 [Sanggenon C] | 43.3% | –
42 | C/C=C(/C)C(=O)O[C@H]1[C@H](OC(C)=O)[C@@]2(CO)C(CC1(C)C)C1=CCC3[C@@]4(C)CC[C@H](O[C@@H]5O[C@H](C(=O)O)[C@@H](O[C@@H]6O[C@H](CO)[C@@H](O)[C@H](O)[C@H]6O)[C@H](O)[C@H]5O[C@@H]5O[C@H](CO)[C@@H](O)[C@H](O)[C@H]5O)[C@](C)(CO)C4CC[C@@]3(C)[C@]1(C)C[C@H]2O (stereo partly shown) [Saponins] | 3.2% | –
43 | C=CCc1ccc(OC(C)=O)c(OC)c1 [Eugenol acetate] | 9.1% | –
44 | CC1(C)COC(=O)C1O (racemic) [DL-Pantolactone] | 0% | –

Row | Structure (SMILES) | 229E Inhibition rate | 229E Inhibition rate (229E Inhibition rate, 24 h)
45 | COc1cc2ccc(=O)oc2c(OC)c1OC [Dimethylfraxetin] | 11.8% | –
46 | CC(C)=CCCC(C)CCO (stereo not shown) [Citronellol] | 12.8% | –
47 | CC1(C)CCC[C@](C)([C@H]2CC[C@]3(C)[C@@H]2[C@H](O)C[C@@H]2[C@@]4(C)CC[C@H](O)C(C)(C)[C@@H]4[C@@H](O)C[C@]23C)O1 [Panaxatriol] | 15.9% | –
48 | CC(C)(O[C@@H]1O[C@H](CO)[C@@H](O)[C@H](O)[C@H]1O)[C@@H]1CC[C@](O)(CO)[C@H]2CC(=O)[C@@](C)(O)[C@@H]2C1 [Atractyloside A] | 20% | –
49 | O=c1cc(-c2ccccc2)oc2cc(O)cc(O[C@@H]3O[C@H](CO)[C@@H](O)[C@H](O)[C@H]3O)c12 [Toringin] | 4.4% | –
50 | C=C(C)[C@H]1Cc2c(ccc3c2O[C@@H]2COc4cc(OC)c(OC)cc4[C@@H]2C3=O)O1 [Rotenone] | 2.8% | –
51 | O=C1C[C@@H](c2ccc(O[C@@H]3O[C@H](CO)[C@@H](O)[C@H](O)[C@H]3O[C@H]3OC[C@@](O)(CO)[C@@H]3O)cc2)Oc2cc(O)ccc21 [Liquiritin apioside] | 16.3% | –
52 | CC(=O)O[C@H]1C[C@H](O[C@H]2[C@@H](O)C[C@H](O[C@H]3[C@@H](O)C[C@H](O[C@H]4CC[C@@]5(C)[C@H](CC[C@@H]6[C@@H]5C[C@@H](O)[C@]5(C)[C@@H](C7=CC(=O)OC7)CC[C@]65O)C4)O[C@@H]3C)O[C@@H]2C)O[C@H](C)[C@H]1O[C@@H]1O[C@H](CO)[C@@H](O)[C@H](O)[C@H]1O [Lanatoside C] | 19.6% | –
53 | CCC/C=C1\OC(=O)C2=C1CC[C@@H](O)[C@H]2O [Senkyunolide H] | 47.8% | –
54 | COc1cc2ccc(=O)oc2c(OC)c1O [Isofraxidin] | 31% | –
55 | C1CCN2C[C@H]3C[C@H](CN4CCCC[C@@H]34)[C@H]2C1 [(+)-Sparteine (sulfate pentahydrate)] | – | 17.2%
56 | CC(C)=CCc1cc(-c2coc3cc(O)ccc3c2=O)ccc1O [Neobavaisoflavone] | 0% | –
57 | c1ccc2c(-c3nccs3)c[nH]c2c1 [Camalexin] | 15.6% | –
58 | CCCCCCCCC(=O)OCC [Ethyl nonanoate] | 11.4% | –
59 | Cc1ncc([N+](=O)[O-])n1CCO [Metronidazole] | 35.8% | –
60 | O=C(/C=C/c1ccc(O)c2c1[C@H](C(=O)O[C@H](Cc1ccc(O)c(O)c1)C(=O)O)[C@@H](c1ccc(O)c(O)c1)O2)O[C@H](Cc1ccc(O)c(O)c1)C(=O)O [Magnesium Lithospermate B] | 6.1% | –
61 | CC1(C)CCC[C@](C)([C@H]2CC[C@]3(C)[C@@H]2[C@H](O)C[C@@H]2[C@@]4(C)CC[C@H](O)C(C)(C)[C@@H]4CC[C@]23C)O1 [Panaxadiol] | 13% | –
62 | O=C(O)CCC(=O)O [Disodium succinate] | – | 8.4%
63 | CC1=C(/C=C/C(C)=C/C=C/C(C)=C/C(=O)O)C(C)(C)CCC1=O [all-trans-4-Oxoretinoic acid] | 11.5% | –
64 | C=CC[C@@H]1/C=C(\C)C[C@H](C)C[C@H](OC)[C@H]2O[C@@](O)(C(=O)C(=O)N3CCCC[C@H]3C(=O)O[C@H](/C(C)=C/[C@@H]3CC[C@@H](O)[C@H](OC)C3)[C@H](C)[C@@H](O)CC1=O)[C@H](C)C[C@@H]2OC [Tacrolimus (monohydrate)] | 31.6% | –

One compound at a time (already shown). Values in the order: 229E Inhibition rate	229E Inhibition rate (229E Inhibition rate, 24 h)
`CC(C)=CCCC(C)CCO` (stereo not shown) [Citronellol] in the list: 12.8%	–
`CCC/C=C1\OC(=O)C2=C1CC[C@@H](O)[C@H]2O` [Senkyunolide H] in the list: 47.8%	–
